Assay [1] concerns the target T1, GST-Rab5A(wt) (D. discoideum) (UniProt Q86JP3).
T1 sequence: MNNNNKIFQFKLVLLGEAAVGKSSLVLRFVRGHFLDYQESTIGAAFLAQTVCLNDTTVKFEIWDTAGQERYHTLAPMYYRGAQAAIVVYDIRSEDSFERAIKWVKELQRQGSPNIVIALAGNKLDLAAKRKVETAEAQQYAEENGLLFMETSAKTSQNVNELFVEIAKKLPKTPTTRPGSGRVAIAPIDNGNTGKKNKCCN
Description: pull-down; GST-Rab5A(wt) (or GST) bound to glutathione-agarose, purified IqgC added; anti-IqgC immunoblot; 50 mM Tris pH 8, 1 mM EGTA, 40 mM NaCl, 1 mM DTT, 0.5% NP40; both purified. For orientation: Immunoblotting shows a protein as a band on a membrane.

For assay [2], the target named is GST-IqgC (full length) (D. discoideum). The assay can be described thus: pull-down; GST-IqgC bound to glutathione-agarose; YFP-Rab5A proteins from lysates of transfected wild-type cells; anti-GFP immunoblot, densitometry against expression in lysates; only the target purified.

Results are given in words; binding and its absence hold for the method and conditions named. Binding can be weak; no strength is given. Tags and fused reporters may be left off the sequences shown. For some assays here: In cells and extracts the contact can be indirect.

For purified IqgC (D. discoideum), the binding entry in assay [1] was “binds”.

B1: YFP-Rab5A (wild type) (protein, UniProt Q86JP3 1-201)
chain: T1 sequence
Turning to B1, the binding result in assay [2] is “binds”.

The record behind these values is PMC10806400.
